# Reference: PubChem BioAssay AID188 (DTP/NCI, 2004)
# Values are animals surviving of animals treated; these mice carried no tumour. Counts of survivors are from the toxicity check (mostly the fifth day) where no day follows; animals may have died later. Schedule codes are those of the source, taken here to give the interval after Q, in days (D) or hours (H), and the number of doses after X.
# Tested on: CD2F1 mice, nontumored, toxicity/survival
# Assay: NCI In Vivo Anticancer Drug Screen. Data for tumor model Nontumored Animals (Toxicity Test) in CD2F1 (CDF1) mice
compound,measurement,setting,value
Cc1ccc(S(=O)(=O)N/N=C/C(=O)O)cc1,survivor count,"dose: 1.0 mg/kg/injection, schedule: Q03HX024 (ip), vehicle: saline",8 of 8
same,survivor count,"dose: 2.0 mg/kg/injection, schedule: Q03HX016 (ip), vehicle: saline",8 of 8
same,survivor count,"dose: 2.0 mg/kg/injection, schedule: Q03HX024 (ip), vehicle: saline",8 of 8
same,survivor count,"dose: 4.0 mg/kg/injection, schedule: Q03HX008 (ip), vehicle: saline",8 of 8
same,survivor count,"dose: 4.0 mg/kg/injection, schedule: Q03HX016 (ip), vehicle: saline",8 of 8
same,survivor count,"dose: 4.0 mg/kg/injection, schedule: Q03HX024 (ip), vehicle: saline",8 of 8
same,survivor count,"dose: 8.0 mg/kg/injection, schedule: Q01DX009 (ip), vehicle: saline",8 of 8
same,survivor count,"dose: 8.0 mg/kg/injection, schedule: Q01DX009 (sc), vehicle: saline",8 of 8
same,survivor count,"dose: 8.0 mg/kg/injection, schedule: Q03HX008 (ip), vehicle: saline",8 of 8
same,survivor count,"dose: 8.0 mg/kg/injection, schedule: Q03HX016 (ip), vehicle: saline",8 of 8
same,survivor count,"dose: 8.0 mg/kg/injection, schedule: Q03HX024 (ip), vehicle: saline",8 of 8
same,survivor count,"dose: 16.0 mg/kg/injection, schedule: Q01DX009 (ip), vehicle: saline",8 of 8
same,survivor count,"dose: 16.0 mg/kg/injection, schedule: Q01DX009 (oral), vehicle: saline",8 of 8
same,survivor count,"dose: 16.0 mg/kg/injection, schedule: Q01DX009 (sc), vehicle: saline",8 of 8
same,survivor count,"dose: 16.0 mg/kg/injection, schedule: Q03HX008 (ip), vehicle: saline",8 of 8
same,survivor count,"dose: 16.0 mg/kg/injection, schedule: Q03HX016 (ip), vehicle: saline",7 of 8
same,survivor count,"dose: 16.0 mg/kg/injection, schedule: Q03HX024 (ip), vehicle: saline",8 of 8
same,survivor count,"dose: 16.0 mg/kg/injection, schedule: Q04DX003 (ip), vehicle: saline",8 of 8
same,survivor count,"dose: 16.0 mg/kg/injection, schedule: Q08DX002 (ip), vehicle: saline",8 of 8
same,survivor count,"dose: 32.0 mg/kg/injection, schedule: Q01DX001 (ip), vehicle: saline",8 of 8
same,survivor count,"dose: 32.0 mg/kg/injection, schedule: Q01DX001 (sc), vehicle: saline",8 of 8
same,survivor count,"dose: 32.0 mg/kg/injection, schedule: Q01DX009 (ip), vehicle: saline",8 of 8
same,survivor count,"dose: 32.0 mg/kg/injection, schedule: Q01DX009 (oral), vehicle: saline",8 of 8
same,survivor count,"dose: 32.0 mg/kg/injection, schedule: Q01DX009 (sc), vehicle: saline",8 of 8
same,survivor count,"dose: 32.0 mg/kg/injection, schedule: Q03HX008 (ip), vehicle: saline",8 of 8
same,survivor count,"dose: 32.0 mg/kg/injection, schedule: Q03HX016 (ip), vehicle: saline",8 of 8
same,survivor count,"dose: 32.0 mg/kg/injection, schedule: Q03HX024 (ip), vehicle: saline",8 of 8
same,survivor count,"dose: 32.0 mg/kg/injection, schedule: Q04DX003 (ip), vehicle: saline",8 of 8
same,survivor count,"dose: 32.0 mg/kg/injection, schedule: Q08DX002 (ip), vehicle: saline",8 of 8
same,survivor count,"dose: 64.0 mg/kg/injection, schedule: Q01DX001 (ip), vehicle: saline",8 of 8
same,survivor count,"dose: 64.0 mg/kg/injection, schedule: Q01DX001 (sc), vehicle: saline",8 of 8
same,survivor count,"dose: 64.0 mg/kg/injection, schedule: Q01DX009 (ip), vehicle: saline",8 of 8
same,survivor count,"dose: 64.0 mg/kg/injection, schedule: Q01DX009 (oral), vehicle: saline",8 of 8
same,survivor count,"dose: 64.0 mg/kg/injection, schedule: Q01DX009 (sc), vehicle: saline",8 of 8
same,survivor count,"dose: 64.0 mg/kg/injection, schedule: Q03HX008 (ip), vehicle: saline",7 of 8
same,survivor count,"dose: 64.0 mg/kg/injection, schedule: Q03HX016 (ip), vehicle: saline",8 of 8
same,survivor count,"dose: 64.0 mg/kg/injection, schedule: Q04DX003 (ip), vehicle: saline",8 of 8
same,survivor count,"dose: 64.0 mg/kg/injection, schedule: Q08DX002 (ip), vehicle: saline",8 of 8
same,survivor count,"dose: 128.0 mg/kg/injection, schedule: Q01DX001 (ip), vehicle: saline",8 of 8
same,survivor count,"dose: 128.0 mg/kg/injection, schedule: Q01DX001 (oral), vehicle: saline",8 of 8
same,survivor count,"dose: 128.0 mg/kg/injection, schedule: Q01DX001 (sc), vehicle: saline",8 of 8
same,survivor count,"dose: 128.0 mg/kg/injection, schedule: Q01DX009 (ip), vehicle: saline",7 of 8
same,survivor count,"dose: 128.0 mg/kg/injection, schedule: Q01DX009 (oral), vehicle: saline",8 of 8
same,survivor count,"dose: 128.0 mg/kg/injection, schedule: Q01DX009 (sc), vehicle: saline",8 of 8
same,survivor count,"dose: 128.0 mg/kg/injection, schedule: Q04DX003 (ip), vehicle: saline",8 of 8
same,survivor count,"dose: 128.0 mg/kg/injection, schedule: Q08DX002 (ip), vehicle: saline",8 of 8
same,survivor count,"dose: 256.0 mg/kg/injection, schedule: Q01DX001 (ip), vehicle: saline",8 of 8
same,survivor count,"dose: 256.0 mg/kg/injection, schedule: Q01DX001 (oral), vehicle: saline",8 of 8
same,survivor count,"dose: 256.0 mg/kg/injection, schedule: Q01DX001 (sc), vehicle: saline",8 of 8
same,survivor count,"dose: 256.0 mg/kg/injection, schedule: Q01DX009 (oral), vehicle: saline",8 of 8
same,survivor count,"dose: 256.0 mg/kg/injection, schedule: Q04DX003 (ip), vehicle: saline",8 of 8
same,survivor count,"dose: 256.0 mg/kg/injection, schedule: Q08DX002 (ip), vehicle: saline",8 of 8
same,survivor count,"dose: 512.0 mg/kg/injection, schedule: Q01DX001 (ip), vehicle: saline",8 of 8
same,survivor count,"dose: 512.0 mg/kg/injection, schedule: Q01DX001 (oral), vehicle: saline",8 of 8
same,survivor count,"dose: 512.0 mg/kg/injection, schedule: Q01DX001 (sc), vehicle: saline",7 of 8
same,survivor count,"dose: 512.0 mg/kg/injection, schedule: Q01DX009 (oral), vehicle: saline",8 of 8
same,survivor count,"dose: 512.0 mg/kg/injection, schedule: Q08DX002 (ip), vehicle: saline",8 of 8
same,survivor count,"dose: 1024.0 mg/kg/injection, schedule: Q01DX001 (oral), vehicle: saline",7 of 8
same,survivor count,"dose: 2048.0 mg/kg/injection, schedule: Q01DX001 (oral), vehicle: saline",7 of 8
CCOc1ccc(-c2nc(N)nc(N)n2)cc1,survivor count,"dose: 1.0 mg/kg/injection, schedule: Q01DX001 (ip), vehicle: water",2 of 2
same,survivor count,"dose: 10.0 mg/kg/injection, schedule: Q01DX001 (ip), vehicle: water",2 of 2
same,survivor count,"dose: 100.0 mg/kg/injection, schedule: Q01DX001 (ip), vehicle: water",2 of 2
